Measured values from paper PMC12670160, “A drug-repurposing screen of FDA- and EMA-approved drugs identifies two NF-κB inhibitors active against eumycetoma” (Journal of Antimicrobial Chemotherapy, 2025).
Counter-ions that a name gives are not always drawn. The whole screen tested about 5,300 compounds, of which about 130 (2.5%) showed an effect of 50% or more. This is one part of the list.

Test system: M. mycetomatis strain mm55
Conditions: primary screen, metabolic activity vs growth control; 96 h, 2 µM; inhibitor

| SMILES | % viability [%] |
| --- | --- |
| C[C@H]1[C@@H](O)O[C@@H]2O[C@@]3(C)CC[C@H]4[C@H](C)CC[C@@H]1[C@@]24OO3 [ONC0002456, artenimol] | 93.7 |
| Cc1cc(C)cc(C(=O)N(C)[C@H](Cc2ccc(-c3ccccc3)cc2)C(=O)N[C@@H](Cc2c[nH]c3ccccc23)C(=O)O)c1 [ONC0002527, irl2500] | 56 |
| CCCCCC(C)N (stereo not shown) [ONC0003207, tuaminoheptane sulfate] | 110.6 |
| Cc1cccc(/C=C/c2ccccc2)n1 [ONC0001321, sib1893] | 87.7 |
| O=C(O)CCC(=O)OC[C@@H](NC(=O)C(Cl)Cl)[C@H](O)c1ccc([N+](=O)[O-])cc1 [ONC0000292, chloramphenicol sodium succinate] | 103 |
| COc1ccc2cc(CCC(C)=O)ccc2c1 [ONC0002389, nabumetone] | 70.8 |
| Cc1cc(C)c(N)c(C#Cc2cccc(F)c2)n1 [ONC0003034, adx10059] | 89.6 |
| CN(C)c1ccc(C(=O)NCCCCCCC(=O)NO)cc1 [ONC0005280, m344] | 132.9 |
| O=C(N[C@H](Cc1ccccc1)C(=O)O)c1sc2cc(F)ccc2c1Cl [ONC0000057, cucpt4a] | 102.7 |
| C#CCN(C)Cc1ccccc1 [ONC0000568, pargyline hydrochloride] | 78.15 |
| CCCCn1ccc(N2CCC(c3ccccc3)CC2)c(Cl)c1=O [ONC0000859, jnj40411813] | 84.4 |
| CC(=O)O/N=C1\C(=O)N(Cc2cc(Cl)ccc2Cl)c2ccc(Cl)cc21 [ONC0005151, ldn57444] | 84.8 |
| OC(CCN1CCCCC1)(c1ccccc1)C1CC2C=CC1C2 (stereo not shown) [ONC0001808, biperiden hydrochloride] | 61.17 |
| CCN(CC)CC#CCOC(=O)C(O)(c1ccccc1)C1CCCCC1 (stereo not shown) [ONC0004166, oxybutynin chloride] | 117.4 |
| O=C(Cc1cccc(OC(F)(F)F)c1)Nc1ccc(CCCCc2nnc(NC(=O)Cc3ccccn3)s2)nn1 [ONC0002070, telaglenastat] | 82.13 |
| Cc1ncc([N+](=O)[O-])n1CCO [ONC0000454, metronidazole] | 90.94 |
| Cc1nc(Nc2ccc(F)cc2)nc(N2CCc3ccccc3C2C)c1C (stereo not shown) [ONC0000346, revaprazan hydrochloride] | 77.77 |
| CN(C)CCOC1=Cc2ccccc2Sc2ccc(Cl)cc21 [ONC0002335, zotepine] | 84.64 |
| CCN(Cc1ccncc1)C(=O)C(CO)c1ccccc1 (stereo not shown) [ONC0003229, tropicamide] | 99.09 |
| O=C(NCCNCC(O)COc1ccc(O)cc1)N1CCOCC1 (stereo not shown) [ONC0002663, xamoterol fumarate] | 68.23 |
| CC(C)(C)NCC(O)COc1cc(Cl)ccc1Cl (stereo not shown) [ONC0002155, cloranolol] | 91.06 |

| SMILES | % viability [%] |
| --- | --- |
| C[C@]12CC[C@H](O)CC1=CCC1C2CC[C@]2(C)C(n3cnc4ccccc43)=CCC12 (stereo partly shown) [ONC0005266, galeterone tok001] | 144.8 |
| N=C(N)c1cc2ccc(OC(=O)c3cccs3)cc2s1 [ONC0004238, bcx 1470 methanesulfonate] | 62.8 |
| Oc1cc2c(cc1O)[C@H]1c3ccccc3CN[C@@H]1CC2 (racemic) [ONC0000064, dihydrexidine] | 117.8 |
| CC(=O)O[C@H]1C[C@H](O[C@H]2[C@@H](O)C[C@H](O[C@H]3[C@@H](O)C[C@H](O[C@H]4CC[C@@]5(C)[C@H](CC[C@@H]6[C@@H]5C[C@@H](O)[C@]5(C)[C@@H](C7=CC(=O)OC7)CC[C@]65O)C4)O[C@@H]3C)O[C@@H]2C)O[C@H](C)[C@H]1O[C@@H]1O[C@H](CO)[C@@H](O)[C@H](O)[C@H]1O [ONC0000550, lanatoside c] | 73.77 |
| CN1C2CCCC1CC(NC(=O)c1nn(C)c3ccccc13)C2 (stereo not shown) [ONC0003247, granisetron hydrochloride] | 147.1 |
| Cn1nc(-c2cccc(F)c2)n(C)c1=S [ONC0003577, suritozole] | 82.85 |
| COc1ccc2[nH]cc(CCNC(C)=O)c2c1 [ONC0001354, melatonin] | 81.35 |
| Cc1ccc(C(=O)c2cc(O)c(O)c([N+](=O)[O-])c2)cc1 [ONC0004575, tolcapone] | 67.61 |
| NC[C@H]1O[C@H](O[C@H]2[C@H](O[C@@H]3O[C@H](CO)[C@@H](O)[C@H]3O)[C@@H](O)[C@H](N)C[C@@H]2N)[C@H](N)[C@@H](O)[C@@H]1O [ONC0001104, ribostamycin sulfate] | 39.68 |
| O=C(Nc1ccc(Cl)cc1)Nc1cccc(-c2cccc(N3CCCC3)n2)c1 [ONC0003054, psncbam1] | 61.4 |
| O=C(N/N=C/c1ccc(O)c(O)c1)c1cc2ccccc2cc1O [ONC0004433, dynasore] | 113 |
| BrC1C(Br)C(Br)C(Br)C(Br)C1Br (stereo not shown) [ONC0001305, 123456hexabromocyclohexane] | 67.14 |
| O=S(=O)(O)c1ccc(-c2c3nc(c(-c4ccc(S(=O)(=O)O)cc4)c4ccc([nH]4)c(-c4ccc(S(=O)(=O)O)cc4)c4nc(c(-c5ccc(S(=O)(=O)O)cc5)c5ccc2[nH]5)C=C4)C=C3)cc1 [ONC0003489, tpps4] | 90.84 |
| CS(=O)(=O)Nc1ccc(-c2coc3cc(OCc4cccc(C(=O)O)c4)ccc3c2=O)cc1 [ONC0002622, cvt10216] | 92.76 |
| O=C1Nc2ccccc2/C1=C1/Nc2ccccc2/C1=N\O [ONC0001436, indirubin3monoxime] | 53.18 |
| C=CC[C@@H]1/C=C(\C)C[C@H](C)C[C@H](OC)[C@H]2O[C@@](O)(C(=O)C(=O)N3CCCC[C@H]3C(=O)O[C@H](/C(C)=C/[C@@H]3CC[C@@H](O)[C@H](OC)C3)[C@H](C)[C@@H](O)CC1=O)[C@H](C)C[C@@H]2OC [ONC0001947, tacrolimus] | 110.9 |
| c1cnc(SCc2cccnc2)nc1 [ONC0002754] | 103.8 |
| O=C(O)CCNc1cc(N2CCc3ccccc3CC2)nc(-c2ccccn2)n1 [ONC0001788, gskj1] | 89.17 |
| COc1ccc(COc2ccc(Cc3cnc(N)nc3N)cc2OC)cc1 [ONC0004414, gw2580] | 95.16 |
| Cc1cc([N+](=O)[O-])ccc1NS(=O)(=O)c1cc(Cl)ccc1Cl [ONC0001886, fh535] | 115.4 |
| COc1ccc(C(=O)NCc2cccnc2)cc1C(=O)NCc1cccnc1 [ONC0002144, picotamide] | 72.45 |

Part of the list above, reformatted:
SMILES,% viability [%]
"CCN(Cc1ccncc1)C(=O)C(CO)c1ccccc1 (stereo not shown) [ONC0003229, tropicamide]",99.09
"O=C(NCCNCC(O)COc1ccc(O)cc1)N1CCOCC1 (stereo not shown) [ONC0002663, xamoterol fumarate]",68.23
"CC(C)(C)NCC(O)COc1cc(Cl)ccc1Cl (stereo not shown) [ONC0002155, cloranolol]",91.06
"C[C@]12CC[C@H](O)CC1=CCC1C2CC[C@]2(C)C(n3cnc4ccccc43)=CCC12 (stereo partly shown) [ONC0005266, galeterone tok001]",144.8
"N=C(N)c1cc2ccc(OC(=O)c3cccs3)cc2s1 [ONC0004238, bcx 1470 methanesulfonate]",62.8
"Oc1cc2c(cc1O)[C@H]1c3ccccc3CN[C@@H]1CC2 (racemic) [ONC0000064, dihydrexidine]",117.8
"CC(=O)O[C@H]1C[C@H](O[C@H]2[C@@H](O)C[C@H](O[C@H]3[C@@H](O)C[C@H](O[C@H]4CC[C@@]5(C)[C@H](CC[C@@H]6[C@@H]5C[C@@H](O)[C@]5(C)[C@@H](C7=CC(=O)OC7)CC[C@]65O)C4)O[C@@H]3C)O[C@@H]2C)O[C@H](C)[C@H]1O[C@@H]1O[C@H](CO)[C@@H](O)[C@H](O)[C@H]1O [ONC0000550, lanatoside c]",73.77
"CN1C2CCCC1CC(NC(=O)c1nn(C)c3ccccc13)C2 (stereo not shown) [ONC0003247, granisetron hydrochloride]",147.1
"Cn1nc(-c2cccc(F)c2)n(C)c1=S [ONC0003577, suritozole]",82.85
"COc1ccc2[nH]cc(CCNC(C)=O)c2c1 [ONC0001354, melatonin]",81.35
"Cc1ccc(C(=O)c2cc(O)c(O)c([N+](=O)[O-])c2)cc1 [ONC0004575, tolcapone]",67.61
"NC[C@H]1O[C@H](O[C@H]2[C@H](O[C@@H]3O[C@H](CO)[C@@H](O)[C@H]3O)[C@@H](O)[C@H](N)C[C@@H]2N)[C@H](N)[C@@H](O)[C@@H]1O [ONC0001104, ribostamycin sulfate]",39.68
"O=C(Nc1ccc(Cl)cc1)Nc1cccc(-c2cccc(N3CCCC3)n2)c1 [ONC0003054, psncbam1]",61.4
"O=C(N/N=C/c1ccc(O)c(O)c1)c1cc2ccccc2cc1O [ONC0004433, dynasore]",113
"BrC1C(Br)C(Br)C(Br)C(Br)C1Br (stereo not shown) [ONC0001305, 123456hexabromocyclohexane]",67.14
"O=S(=O)(O)c1ccc(-c2c3nc(c(-c4ccc(S(=O)(=O)O)cc4)c4ccc([nH]4)c(-c4ccc(S(=O)(=O)O)cc4)c4nc(c(-c5ccc(S(=O)(=O)O)cc5)c5ccc2[nH]5)C=C4)C=C3)cc1 [ONC0003489, tpps4]",90.84

Remaining list, next part:

| SMILES | % viability [%] |
| --- | --- |
| Cc1c(Cl)cccc1S(=O)(=O)Nc1nc(CC(=O)N2CCN(C)CC2)cs1 [ONC0001229, bvt 2733] | 120.1 |
| Cc1nc(NS(=O)(=O)c2ccc(N)cc2)oc1C [ONC0005495, sulfamoxole] | 107.5 |
| C=C(Nc1ccc(OCC)cc1)Nc1ccc(OCC)cc1 [ONC0005342, phenacaine] | 118.6 |
| OCC[N+]12CN3CN(CN(C3)C1)C2 [ONC0001499, y11] | 85.89 |
| CCCCN1CCCC1CNC(=O)c1cc(C#N)c2ccccc2c1OC (stereo not shown) [ONC0001239, nafadotride] | 68.92 |
| COC(=O)C1=C(C)NC(C)=C(C(=O)O[C@@H]2CCCN(Cc3ccccc3)C2)[C@@H]1c1cccc([N+](=O)[O-])c1 (racemic) [ONC0004618, benidipine hydrochloride] | 66.69 |
| Cc1cc(O)c(-c2ccc([C@@H](C)CN)cc2)c2c1[nH]c(=O)c1sccc12 [ONC0001173, ots514] | 81.93 |
| O=C(O)c1ccc2[nH]cc(CCCCN3CC=C(c4ccccc4)CC3)c2c1 [ONC0004451, carmoxirole] | 126.8 |
| CC(=O)Nc1nc(C)c(-c2ccc(Cl)c(S(=O)(=O)NCCO)c2)s1 [ONC0004891, pik93] | 111.7 |
| CN(Cc1ccccc1)C(=O)[C@H](Cc1ccc2ccccc2c1)NC(=O)[C@@H]1CCCN1C(=O)Nc1ccccc1[N+](=O)[O-] [ONC0003027, sdznkt343] | 140.9 |
| O=c1c(O)c(-c2ccc(O)cc2O)oc2cc(O)cc(O)c12 [ONC0005252, morin hydrate aurantica] | 114.3 |
| COc1ccc(C2CNC(=O)C2)cc1OC1CCCC1 (stereo not shown) [ONC0004062, rolipram] | 112.2 |
| OC[C@H]1O[C@@H](Oc2cc(O)cc(/C=C/c3ccc(O)cc3)c2)[C@H](O)[C@@H](O)[C@@H]1O [ONC0004966, polydatinpiceid] | 66.69 |
| COc1ccc2nc3c(c(N)c2c1)CCCC3 [ONC0003701, 7methoxytacrine] | 109.8 |
| NC(=O)NCCCC(N)C(=O)O (stereo not shown) [ONC0003865, lcitrulline] | 65.76 |
| CCOC(=O)Nc1ccc2c(c1)N(C(=O)CN(CC)CC)c1ccccc1CC2 [ONC0001397, cinpa1] | 105.8 |
| Nc1c(S(=O)(=O)O)cc(Nc2cccc3ccccc23)c2c1C(=O)c1ccccc1C2=O [ONC0003059, psb06126] | 88.48 |
| CC(SC(=O)c1cccs1)C(=O)NCC(=O)O (stereo not shown) [ONC0003330, stepronin] | 68.94 |
| Cc1cn2nc([C@@H]3CCCCN3C(=O)c3cc(Cl)ccc3NS(C)(=O)=O)cc2nc1N1CC[C@H](N)C1 [ONC0000861, presatovir] | 79.82 |
